# Measured values reported in the supplement of paper PMC8728848.
# The list shows a part of the results.
# Key:
# Assay in all cases: glycan array binding signal (z-score within array); higher = stronger binding
# Settings in all cases: glycan notation: IUPAC condensed, linker removed
# [1] = target: Neu5Ac(a2-3)Gal(b1-3)GlcNAc(b1-2)Man(a1-3)[GlcNAc(b1-4)][Neu5Ac(a2-3)Gal(b1-3)GlcNAc(b1-2)Man(a1-6)]Man(b1-4)GlcNAc(b1-4)GlcNAc
# How it was run: (§1)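 Glycan array data came from 3228 arrays in the Consortium for Functional Glycomics database, and only arrays with an available protein sequence were kept. Glycan names were put into IUPAC-condensed notation, and columns mapping to the same glycan were averaged. The binding signal is a within-array Z-score, averaged across arrays of one protein sequence run at different concentrations or buffers and across linkers. A negative Z-score can be read as non-binding.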
# [2] = target: Neu5Ac(a2-3)Gal(b1-3)GlcNAc(b1-2)Man(a1-3)[Neu5Ac(a2-3)Gal(b1-3)GlcNAc(b1-2)Man(a1-6)]Man(b1-4)GlcNAc(b1-4)GlcNAc
# How it was run: as §1
# [3] = target: Neu5Ac(a2-3)Gal(b1-3)GlcNAc(b1-3)Gal(b1-3)GlcNAc
# How it was run: as §1
# [4] = target: Neu5Ac(a2-3)Gal(b1-3)GlcNAc(b1-3)Gal(b1-4)GlcNAc
# How it was run: as §1
# [5] = target: Neu5Ac(a2-3)Gal(b1-3)GlcNAc(b1-3)GalNAc
# How it was run: as §1
# [6] = target: Neu5Ac(a2-3)Gal(b1-3)GlcNAc(b1-4)Gal(b1-4)Glc
# How it was run: as §1
# [7] = target: Neu5Ac(a2-3)Gal(b1-3)GlcNAc(b1-6)GalNAc
# How it was run: as §1
# [8] = target: Neu5Ac(a2-3)Gal(b1-3)GlcNAc6S
# How it was run: as §1
# [9] = target: Neu5Ac(a2-3)Gal(b1-3)[Fuc(a1-4)]GlcNAc
# How it was run: as §1
# [10] = target: Neu5Ac(a2-3)Gal(b1-3)[Fuc(a1-4)]GlcNAc(b1-3)Gal(b1-3)[Fuc(a1-4)]GlcNAc
# How it was run: as §1
# [11] = target: Neu5Ac(a2-3)Gal(b1-3)[Fuc(a1-4)]GlcNAc(b1-3)Gal(b1-4)[Fuc(a1-3)]GlcNAc
# How it was run: as §1
# [12] = target: Neu5Ac(a2-3)Gal(b1-3)[GlcNAc(b1-6)]GalNAc
# How it was run: as §1
# [13] = target: Neu5Ac(a2-3)Gal(b1-3)[Neu5Ac(a2-6)]GalNAc
# How it was run: as §1
# [14] = target: Neu5Ac(a2-3)Gal(b1-3)[Neu5Ac(a2-6)]GlcNAc(b1-3)[Fuc(a1-3)[Gal(b1-4)]GlcNAc(b1-6)]Gal(b1-4)Glc
# How it was run: as §1
# [15] = target: Neu5Ac(a2-3)Gal(b1-3)]Neu5Ac(a2-3)Gal(b1-4)]GlcNAc
# How it was run: as §1
# Neu5Ac(a2-3)Gal(b1-4)Glc = target: Neu5Ac(a2-3)Gal(b1-4)Glc
# How it was run: as §1
# [16] = target: Neu5Ac(a2-3)Gal(b1-4)GlcNAc
# How it was run: as §1
# [17] = target: Neu5Ac(a2-3)Gal(b1-4)GlcNAc(b1-2)Man
# How it was run: as §1
# [18] = target: Neu5Ac(a2-3)Gal(b1-4)GlcNAc(b1-2)Man(a1-3)[GlcNAc(b1-4)][Neu5Ac(a2-3)Gal(b1-4)GlcNAc(b1-2)Man(a1-6)]Man(b1-4)GlcNAc(b1-4)GlcNAc
# How it was run: as §1
# [19] = target: Neu5Ac(a2-3)Gal(b1-4)GlcNAc(b1-2)Man(a1-3)[Neu5Ac(a2-3)Gal(b1-4)GlcNAc(b1-2)Man(a1-6)]Man(b1-4)GlcNAc(b1-4)GlcNAc
# How it was run: as §1
# [20] = target: Neu5Ac(a2-3)Gal(b1-4)GlcNAc(b1-2)Man(a1-3)[Neu5Ac(a2-3)Gal(b1-4)GlcNAc(b1-2)Man(a1-6)]Man(b1-4)GlcNAc(b1-4)[Fuc(a1-6)]GlcNAc
# How it was run: as §1
# [21] = target: Neu5Ac(a2-3)Gal(b1-4)GlcNAc(b1-2)Man(a1-3)[Neu5Ac(a2-6)Gal(b1-4)GlcNAc(b1-2)Man(a1-6)]Man(b1-4)GlcNAc(b1-4)GlcNAc
# How it was run: as §1
# [22] = target: Neu5Ac(a2-3)Gal(b1-4)GlcNAc(b1-2)[Neu5Ac(a2-3)Gal(b1-4)GlcNAc(b1-4)]Man(a1-3)[GlcNAc(b1-4)][Neu5Ac(a2-3)Gal(b1-4)GlcNAc(b1-2)[Neu5Ac(a2-3)Gal(b1-4)GlcNAc(b1-6)]Man(a1-6)]Man(b1-4)GlcNAc(b1-4)GlcNAc
# How it was run: as §1
# [23] = target: Neu5Ac(a2-3)Gal(b1-4)GlcNAc(b1-2)[Neu5Ac(a2-3)Gal(b1-4)GlcNAc(b1-4)]Man(a1-3)[GlcNAc(b1-4)][Neu5Ac(a2-3)Gal(b1-4)GlcNAc(b1-4)Man(a1-6)]Man(b1-4)GlcNAc(b1-4)GlcNAc
# How it was run: as §1
# [24] = target: Neu5Ac(a2-3)Gal(b1-4)GlcNAc(b1-2)[Neu5Ac(a2-3)Gal(b1-4)GlcNAc(b1-6)]Man(a1-6)[Neu5Ac(a2-3)Gal(b1-4)GlcNAc(b1-2)Man(a1-3)]Man(b1-4)GlcNAc(b1-4)GlcNAc
# How it was run: as §1
# [25] = target: Neu5Ac(a2-3)Gal(b1-4)GlcNAc(b1-2)[Neu5Ac(a2-3)Gal(b1-4)GlcNAc(b1-6)]Man(a1-6)[Neu5Ac(a2-3)Gal(b1-4)GlcNAc(b1-2)Man(a1-3)][GlcNAc(b1-4)]Man(b1-4)GlcNAc(b1-4)GlcNAc
# How it was run: as §1
# [26] = target: Neu5Ac(a2-3)Gal(b1-4)GlcNAc(b1-3)Gal
# How it was run: as §1
# [27] = target: Neu5Ac(a2-3)Gal(b1-4)GlcNAc(b1-3)Gal(b1-3)GlcNAc
# How it was run: as §1
# [28] = target: Neu5Ac(a2-3)Gal(b1-4)GlcNAc(b1-3)Gal(b1-4)GlcNAc
# How it was run: as §1
# [29] = target: Neu5Ac(a2-3)Gal(b1-4)GlcNAc(b1-3)Gal(b1-4)GlcNAc(b1-2)Man(a1-3)[Neu5Ac(a2-3)Gal(b1-4)GlcNAc(b1-3)Gal(b1-4)GlcNAc(b1-2)Man(a1-6)]Man(b1-4)GlcNAc(b1-4)GlcNAc
# How it was run: as §1
# [30] = target: Neu5Ac(a2-3)Gal(b1-4)GlcNAc(b1-3)Gal(b1-4)GlcNAc(b1-3)Gal(b1-4)GlcNAc
# How it was run: as §1
# [31] = target: Neu5Ac(a2-3)Gal(b1-4)GlcNAc(b1-3)Gal(b1-4)GlcNAc(b1-3)Gal(b1-4)GlcNAc(b1-2)Man(a1-3)[Neu5Ac(a2-3)Gal(b1-4)GlcNAc(b1-3)Gal(b1-4)GlcNAc(b1-3)Gal(b1-4)GlcNAc(b1-2)Man(a1-6)]GalNAc
# How it was run: as §1
# [32] = target: Neu5Ac(a2-3)Gal(b1-4)GlcNAc(b1-3)Gal(b1-4)GlcNAc(b1-3)GalNAc
# How it was run: as §1
# [33] = target: Neu5Ac(a2-3)Gal(b1-4)GlcNAc(b1-3)Gal(b1-4)GlcNAc(b1-3)[Neu5Ac(a2-3)Gal(b1-4)GlcNAc(b1-3)Gal(b1-4)GlcNAc(b1-6)]GalNAc
# How it was run: as §1
# [34] = target: Neu5Ac(a2-3)Gal(b1-4)GlcNAc(b1-3)Gal(b1-4)GlcNAc(b1-6)[Gal(b1-3)]GalNAc
# How it was run: as §1
# [35] = target: Neu5Ac(a2-3)Gal(b1-4)GlcNAc(b1-3)Gal(b1-4)[Fuc(a1-3)]GlcNAc
# How it was run: as §1
# [36] = target: Neu5Ac(a2-3)Gal(b1-4)GlcNAc(b1-3)GalNAc
# How it was run: as §1
# [37] = target: Neu5Ac(a2-3)Gal(b1-4)GlcNAc(b1-3)[Neu5Ac(a2-3)Gal(b1-4)GlcNAc(b1-6)]GalNAc
# How it was run: as §1
binder,measurement,setting,value
"AntigenI/IIA3VP1 (Streptococcus mutans), C9E3B4 (protein) AANEADYQAKLTAYQTELARVQKANADAKAAYEAAVAANNAANAALTAENTAIKKRNADAKADYEAKLAKYQADLAKYQKDLADYPVKLKAYEDEQASIKAALAELEKHKNEDGNLTEPSAQNLVYDLEPNANLSLTTDGKFLKASAVDDAFSKSTSKAKYDQKILQLDDLDITNLEQSNDVASSMELYGNFGDKAGWSTTVSNNSQVKWGSVLLERGQSATATYTNLQNSYYNGKKISKIVYKYTVDPKSKFQGQKVWLGIFTDPTLGVFASAYTGQVEKNTSIFIKNEFTFYDEDGKPINFDNALLSVASLNREHNSIEMAKDYSGKFVKISGSSIGEKNGMIYATDTLNFKQGEGGSRWTMYKNSQAGSGWDSSDAPNSWYGAGAIKMSGPNNYVTVGATSATNVMPVSDMPVVPGKDNTDGKKPNIWYSLNGKIRAVNVPKVTKEKPTPPVKPTAPTKPTYETEKPLKPAPVAPNYEKEPTPPTRLEHHHHHH",glycan array binding signal (z-score),[1],-0.193
same,glycan array binding signal (z-score),[2],0.303
same,glycan array binding signal (z-score),[3],-0.515
same,glycan array binding signal (z-score),[4],-1.16
same,glycan array binding signal (z-score),[5],-0.807
same,glycan array binding signal (z-score),[6],-0.89
same,glycan array binding signal (z-score),[7],0.016
same,glycan array binding signal (z-score),[8],-1.25
same,glycan array binding signal (z-score),[9],-0.416
same,glycan array binding signal (z-score),[10],-0.256
same,glycan array binding signal (z-score),[11],-0.387
same,glycan array binding signal (z-score),[12],0.443
same,glycan array binding signal (z-score),[13],-1.06
same,glycan array binding signal (z-score),[14],-0.099
same,glycan array binding signal (z-score),[15],0.016
same,glycan array binding signal (z-score),Neu5Ac(a2-3)Gal(b1-4)Glc,-0.468
same,glycan array binding signal (z-score),[16],0.013
same,glycan array binding signal (z-score),[17],0.921
same,glycan array binding signal (z-score),[18],-0.724
same,glycan array binding signal (z-score),[19],-0.3
same,glycan array binding signal (z-score),[20],-1.08
same,glycan array binding signal (z-score),[21],0.08
same,glycan array binding signal (z-score),[22],0.01
same,glycan array binding signal (z-score),[23],-0.941
same,glycan array binding signal (z-score),[24],0.406
same,glycan array binding signal (z-score),[25],-1.35
same,glycan array binding signal (z-score),[26],-1.18
same,glycan array binding signal (z-score),[27],0.366
same,glycan array binding signal (z-score),[28],-0.616
same,glycan array binding signal (z-score),[29],-0.058
same,glycan array binding signal (z-score),[30],-0.965
same,glycan array binding signal (z-score),[31],1.4
same,glycan array binding signal (z-score),[32],1.42
same,glycan array binding signal (z-score),[33],0.324
same,glycan array binding signal (z-score),[34],-0.29
same,glycan array binding signal (z-score),[35],-0.593
same,glycan array binding signal (z-score),[36],-1.27
same,glycan array binding signal (z-score),[37],0.764

# For convenience, part of the list above:
binder,measurement,setting,value
"AntigenI/IIA3VP1 (Streptococcus mutans), C9E3B4 (protein) AANEADYQAKLTAYQTELARVQKANADAKAAYEAAVAANNAANAALTAENTAIKKRNADAKADYEAKLAKYQADLAKYQKDLADYPVKLKAYEDEQASIKAALAELEKHKNEDGNLTEPSAQNLVYDLEPNANLSLTTDGKFLKASAVDDAFSKSTSKAKYDQKILQLDDLDITNLEQSNDVASSMELYGNFGDKAGWSTTVSNNSQVKWGSVLLERGQSATATYTNLQNSYYNGKKISKIVYKYTVDPKSKFQGQKVWLGIFTDPTLGVFASAYTGQVEKNTSIFIKNEFTFYDEDGKPINFDNALLSVASLNREHNSIEMAKDYSGKFVKISGSSIGEKNGMIYATDTLNFKQGEGGSRWTMYKNSQAGSGWDSSDAPNSWYGAGAIKMSGPNNYVTVGATSATNVMPVSDMPVVPGKDNTDGKKPNIWYSLNGKIRAVNVPKVTKEKPTPPVKPTAPTKPTYETEKPLKPAPVAPNYEKEPTPPTRLEHHHHHH",glycan array binding signal (z-score),[26],-1.18
same,glycan array binding signal (z-score),[27],0.366
same,glycan array binding signal (z-score),[28],-0.616
same,glycan array binding signal (z-score),[29],-0.058
same,glycan array binding signal (z-score),[30],-0.965
same,glycan array binding signal (z-score),[31],1.4
same,glycan array binding signal (z-score),[32],1.42
same,glycan array binding signal (z-score),[33],0.324
same,glycan array binding signal (z-score),[34],-0.29
